Data from the supplement of paper PMC10849652.
The list shows a part of the results.

The chains behind the UniProt entries cited, without tags or fusion partners. Where a name states a change or a piece, a line headed by the entry shows the natural chain unless it says otherwise.
UniProt Q16698: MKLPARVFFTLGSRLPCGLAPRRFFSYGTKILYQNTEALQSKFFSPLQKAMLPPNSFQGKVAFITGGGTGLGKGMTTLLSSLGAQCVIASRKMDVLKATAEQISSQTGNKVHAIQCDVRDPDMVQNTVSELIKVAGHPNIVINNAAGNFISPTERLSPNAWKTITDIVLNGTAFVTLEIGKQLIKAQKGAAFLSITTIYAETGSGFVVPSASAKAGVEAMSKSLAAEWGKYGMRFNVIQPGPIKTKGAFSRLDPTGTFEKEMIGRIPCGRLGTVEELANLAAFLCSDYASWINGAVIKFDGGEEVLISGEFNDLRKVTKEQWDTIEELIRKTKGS
UniProt Q5TDH0: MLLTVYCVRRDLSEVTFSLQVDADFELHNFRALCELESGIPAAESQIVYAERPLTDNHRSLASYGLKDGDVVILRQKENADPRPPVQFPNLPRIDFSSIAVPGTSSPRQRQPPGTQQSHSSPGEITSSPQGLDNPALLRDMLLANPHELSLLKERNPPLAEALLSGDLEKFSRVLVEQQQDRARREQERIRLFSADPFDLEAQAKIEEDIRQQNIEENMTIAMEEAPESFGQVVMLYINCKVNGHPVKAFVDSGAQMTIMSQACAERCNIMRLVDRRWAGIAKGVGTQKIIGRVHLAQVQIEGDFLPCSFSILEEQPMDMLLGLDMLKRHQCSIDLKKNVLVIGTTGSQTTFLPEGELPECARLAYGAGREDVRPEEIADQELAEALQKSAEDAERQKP
UniProt Q5TAQ9: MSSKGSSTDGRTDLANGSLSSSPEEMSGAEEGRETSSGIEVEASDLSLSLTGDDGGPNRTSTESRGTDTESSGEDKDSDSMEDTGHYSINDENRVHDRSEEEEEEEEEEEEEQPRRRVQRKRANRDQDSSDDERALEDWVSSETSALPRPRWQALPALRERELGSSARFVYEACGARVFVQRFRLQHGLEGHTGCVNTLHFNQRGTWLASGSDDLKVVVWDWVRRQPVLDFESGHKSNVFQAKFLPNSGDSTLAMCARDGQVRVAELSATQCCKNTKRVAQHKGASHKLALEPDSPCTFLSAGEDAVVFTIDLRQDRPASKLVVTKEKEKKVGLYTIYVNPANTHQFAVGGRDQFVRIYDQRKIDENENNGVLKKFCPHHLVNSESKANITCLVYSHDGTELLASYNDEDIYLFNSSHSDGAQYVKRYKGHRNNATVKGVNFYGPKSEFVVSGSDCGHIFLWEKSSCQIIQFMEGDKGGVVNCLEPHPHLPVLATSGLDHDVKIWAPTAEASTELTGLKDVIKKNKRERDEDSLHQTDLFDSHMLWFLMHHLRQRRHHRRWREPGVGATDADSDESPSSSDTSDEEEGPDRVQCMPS
UniProt O95865: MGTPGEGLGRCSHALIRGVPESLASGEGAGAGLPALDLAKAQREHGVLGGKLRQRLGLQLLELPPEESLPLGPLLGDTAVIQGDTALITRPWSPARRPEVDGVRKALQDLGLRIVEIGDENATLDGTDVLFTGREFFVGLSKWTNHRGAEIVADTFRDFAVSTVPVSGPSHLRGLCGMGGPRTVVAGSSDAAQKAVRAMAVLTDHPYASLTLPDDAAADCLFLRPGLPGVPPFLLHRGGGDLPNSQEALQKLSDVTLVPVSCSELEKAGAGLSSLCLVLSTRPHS
UniProt O75064: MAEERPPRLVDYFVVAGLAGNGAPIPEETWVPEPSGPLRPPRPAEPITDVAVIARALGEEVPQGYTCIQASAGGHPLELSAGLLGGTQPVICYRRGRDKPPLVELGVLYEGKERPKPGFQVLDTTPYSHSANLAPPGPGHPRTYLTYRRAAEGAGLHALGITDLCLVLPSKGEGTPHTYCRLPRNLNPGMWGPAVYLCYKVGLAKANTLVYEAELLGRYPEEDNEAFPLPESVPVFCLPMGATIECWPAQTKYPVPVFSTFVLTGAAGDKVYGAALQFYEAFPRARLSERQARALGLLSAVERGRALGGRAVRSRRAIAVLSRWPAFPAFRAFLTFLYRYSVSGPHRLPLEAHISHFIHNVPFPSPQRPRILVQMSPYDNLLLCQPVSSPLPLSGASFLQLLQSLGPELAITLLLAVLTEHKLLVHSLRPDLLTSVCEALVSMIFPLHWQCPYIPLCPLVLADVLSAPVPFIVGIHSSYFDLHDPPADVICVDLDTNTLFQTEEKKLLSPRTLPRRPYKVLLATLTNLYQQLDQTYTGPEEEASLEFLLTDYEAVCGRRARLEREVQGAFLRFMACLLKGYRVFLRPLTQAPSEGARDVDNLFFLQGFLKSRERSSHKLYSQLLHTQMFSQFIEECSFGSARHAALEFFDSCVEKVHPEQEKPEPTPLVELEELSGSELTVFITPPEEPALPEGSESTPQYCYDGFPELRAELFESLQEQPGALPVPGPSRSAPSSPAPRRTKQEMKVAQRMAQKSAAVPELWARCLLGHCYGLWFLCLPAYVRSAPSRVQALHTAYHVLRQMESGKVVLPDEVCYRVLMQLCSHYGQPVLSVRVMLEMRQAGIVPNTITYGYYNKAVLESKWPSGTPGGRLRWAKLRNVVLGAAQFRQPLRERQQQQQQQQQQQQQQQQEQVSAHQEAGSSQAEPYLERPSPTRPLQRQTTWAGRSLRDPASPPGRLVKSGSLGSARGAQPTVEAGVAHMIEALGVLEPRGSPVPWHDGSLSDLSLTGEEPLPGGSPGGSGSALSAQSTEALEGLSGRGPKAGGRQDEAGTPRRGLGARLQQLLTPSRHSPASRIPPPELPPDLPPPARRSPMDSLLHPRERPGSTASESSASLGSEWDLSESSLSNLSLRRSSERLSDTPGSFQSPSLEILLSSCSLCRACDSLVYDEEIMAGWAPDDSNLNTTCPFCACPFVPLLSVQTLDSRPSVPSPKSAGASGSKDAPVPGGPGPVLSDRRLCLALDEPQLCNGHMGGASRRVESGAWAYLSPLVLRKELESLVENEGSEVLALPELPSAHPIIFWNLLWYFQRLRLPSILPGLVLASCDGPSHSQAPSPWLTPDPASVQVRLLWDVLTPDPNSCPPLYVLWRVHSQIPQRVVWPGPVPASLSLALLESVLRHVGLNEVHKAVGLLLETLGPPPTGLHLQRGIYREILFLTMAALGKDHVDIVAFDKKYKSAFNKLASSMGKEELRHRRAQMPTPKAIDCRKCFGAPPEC
UniProt Q9NXF7, whole entry, looked up: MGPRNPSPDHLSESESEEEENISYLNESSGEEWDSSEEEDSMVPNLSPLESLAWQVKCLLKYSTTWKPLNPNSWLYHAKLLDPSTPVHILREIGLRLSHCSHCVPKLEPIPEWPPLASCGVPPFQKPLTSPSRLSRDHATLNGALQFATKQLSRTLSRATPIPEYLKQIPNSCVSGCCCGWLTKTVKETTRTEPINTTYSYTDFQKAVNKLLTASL
UniProt Q9UJV9: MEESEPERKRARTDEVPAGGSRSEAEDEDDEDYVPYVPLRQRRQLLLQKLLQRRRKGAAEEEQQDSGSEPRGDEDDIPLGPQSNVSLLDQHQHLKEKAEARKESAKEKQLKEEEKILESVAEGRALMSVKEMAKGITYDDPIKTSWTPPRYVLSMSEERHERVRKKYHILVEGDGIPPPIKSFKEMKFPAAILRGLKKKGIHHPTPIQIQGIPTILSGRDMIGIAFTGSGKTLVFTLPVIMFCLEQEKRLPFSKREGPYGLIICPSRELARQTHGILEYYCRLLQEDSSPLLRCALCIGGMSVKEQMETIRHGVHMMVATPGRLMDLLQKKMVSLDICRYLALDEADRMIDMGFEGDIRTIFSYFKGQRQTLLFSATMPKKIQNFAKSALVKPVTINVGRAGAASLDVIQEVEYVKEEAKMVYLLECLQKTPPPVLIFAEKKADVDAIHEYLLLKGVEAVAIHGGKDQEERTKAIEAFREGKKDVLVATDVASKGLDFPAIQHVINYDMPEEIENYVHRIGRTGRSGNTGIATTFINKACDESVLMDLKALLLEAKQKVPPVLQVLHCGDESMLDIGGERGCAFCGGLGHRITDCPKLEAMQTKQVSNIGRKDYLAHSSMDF
UniProt Q9NV06: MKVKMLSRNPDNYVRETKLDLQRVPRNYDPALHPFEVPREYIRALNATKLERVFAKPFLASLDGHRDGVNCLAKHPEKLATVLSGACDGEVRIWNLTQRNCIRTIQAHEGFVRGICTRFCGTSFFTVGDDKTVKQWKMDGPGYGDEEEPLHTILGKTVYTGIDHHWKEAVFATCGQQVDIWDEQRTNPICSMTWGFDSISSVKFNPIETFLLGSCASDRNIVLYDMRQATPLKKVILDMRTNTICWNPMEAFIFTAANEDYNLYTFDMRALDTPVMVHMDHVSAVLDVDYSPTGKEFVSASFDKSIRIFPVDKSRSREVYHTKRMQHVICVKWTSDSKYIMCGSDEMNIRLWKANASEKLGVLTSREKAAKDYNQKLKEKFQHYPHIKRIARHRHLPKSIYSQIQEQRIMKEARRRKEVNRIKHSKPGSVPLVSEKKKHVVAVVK
UniProt Q92499: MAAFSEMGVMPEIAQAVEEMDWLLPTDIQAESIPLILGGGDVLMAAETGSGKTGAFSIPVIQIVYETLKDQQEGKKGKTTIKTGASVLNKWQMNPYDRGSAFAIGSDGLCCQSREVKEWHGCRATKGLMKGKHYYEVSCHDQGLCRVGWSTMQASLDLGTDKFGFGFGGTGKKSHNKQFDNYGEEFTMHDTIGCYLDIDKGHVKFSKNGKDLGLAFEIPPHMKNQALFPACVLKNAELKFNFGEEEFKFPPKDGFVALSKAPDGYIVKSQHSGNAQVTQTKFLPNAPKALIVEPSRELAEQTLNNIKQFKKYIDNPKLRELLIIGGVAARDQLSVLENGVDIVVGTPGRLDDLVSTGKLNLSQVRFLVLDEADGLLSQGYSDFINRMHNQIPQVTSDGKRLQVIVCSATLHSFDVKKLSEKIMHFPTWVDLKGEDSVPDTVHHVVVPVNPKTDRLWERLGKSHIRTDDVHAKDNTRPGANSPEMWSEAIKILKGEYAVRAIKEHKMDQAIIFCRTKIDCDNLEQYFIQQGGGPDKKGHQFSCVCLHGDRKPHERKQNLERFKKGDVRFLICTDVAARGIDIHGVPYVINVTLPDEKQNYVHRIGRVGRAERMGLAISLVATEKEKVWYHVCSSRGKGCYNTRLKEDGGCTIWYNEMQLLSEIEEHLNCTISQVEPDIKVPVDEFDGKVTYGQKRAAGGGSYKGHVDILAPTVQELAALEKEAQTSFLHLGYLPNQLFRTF
UniProt Q9NY93: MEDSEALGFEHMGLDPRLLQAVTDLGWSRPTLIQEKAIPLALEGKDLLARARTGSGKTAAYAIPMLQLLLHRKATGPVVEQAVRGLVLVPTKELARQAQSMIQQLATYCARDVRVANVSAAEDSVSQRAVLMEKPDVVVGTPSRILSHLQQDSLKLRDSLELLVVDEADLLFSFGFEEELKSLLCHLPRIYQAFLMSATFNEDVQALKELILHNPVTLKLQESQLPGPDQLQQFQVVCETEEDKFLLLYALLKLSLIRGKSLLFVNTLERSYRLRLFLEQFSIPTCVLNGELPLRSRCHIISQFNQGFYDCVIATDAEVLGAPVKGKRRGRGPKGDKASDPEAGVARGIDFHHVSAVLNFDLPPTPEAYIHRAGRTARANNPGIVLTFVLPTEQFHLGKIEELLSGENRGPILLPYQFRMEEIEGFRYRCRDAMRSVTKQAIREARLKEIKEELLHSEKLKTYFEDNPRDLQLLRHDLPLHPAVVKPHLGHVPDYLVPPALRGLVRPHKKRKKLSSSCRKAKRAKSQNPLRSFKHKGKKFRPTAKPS
UniProt Q6PI48: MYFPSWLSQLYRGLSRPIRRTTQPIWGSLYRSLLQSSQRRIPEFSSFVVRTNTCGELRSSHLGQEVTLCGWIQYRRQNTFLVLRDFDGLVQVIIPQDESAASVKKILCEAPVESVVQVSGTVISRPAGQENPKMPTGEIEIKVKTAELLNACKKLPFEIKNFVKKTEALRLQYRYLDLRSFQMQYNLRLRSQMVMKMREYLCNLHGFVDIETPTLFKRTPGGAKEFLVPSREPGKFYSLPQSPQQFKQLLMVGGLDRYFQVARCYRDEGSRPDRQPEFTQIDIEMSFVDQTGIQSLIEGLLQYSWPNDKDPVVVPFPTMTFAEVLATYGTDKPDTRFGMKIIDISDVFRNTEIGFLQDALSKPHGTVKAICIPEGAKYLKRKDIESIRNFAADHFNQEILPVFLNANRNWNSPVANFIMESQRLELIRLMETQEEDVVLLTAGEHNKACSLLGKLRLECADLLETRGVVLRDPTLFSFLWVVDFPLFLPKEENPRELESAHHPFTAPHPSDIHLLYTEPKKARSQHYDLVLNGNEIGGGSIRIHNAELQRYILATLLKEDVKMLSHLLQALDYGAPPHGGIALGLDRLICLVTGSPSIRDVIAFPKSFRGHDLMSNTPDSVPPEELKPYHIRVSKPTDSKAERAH
UniProt Q7Z4W1: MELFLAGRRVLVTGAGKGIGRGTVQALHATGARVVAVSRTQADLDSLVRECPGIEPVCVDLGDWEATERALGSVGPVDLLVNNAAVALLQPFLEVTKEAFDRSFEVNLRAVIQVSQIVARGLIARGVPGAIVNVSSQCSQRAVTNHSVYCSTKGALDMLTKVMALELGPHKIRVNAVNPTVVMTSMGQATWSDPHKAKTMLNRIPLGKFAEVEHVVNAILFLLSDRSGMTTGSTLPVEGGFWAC

Assays:
Assay in all cases: log2 fold change, soluble protein after heating vs DMSO (PISA); higher = thermal stabilisation; K562 lysate, 10 uM; active = over 0.2 and 3.5 SD of the protein, either way, in both replicates (recomputed)
alvocidib = compound: CN1CC[C@H](c2c(O)cc(O)c3c(=O)cc(-c4ccccc4Cl)oc23)[C@H](O)C1 [alvocidib]
How it was run: (§1)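 Following dounce homogenisation of K562 pellets in PBS pH 7.4 with 1 mM MgCl2, crude extract at 1 mg/mL protein was incubated for 30 min with 10 μM compound. Aliquots were then heated for 3 min over 48°C-58°C and pooled, NP-40 was added to 0.5% at 4°C, and soluble protein was recovered as the supernatant at 21,000xg for 90 min. Channel-sum-equalised TMTpro 16plex LC-MS/MS quantified this protein. Each value, from duplicates, is a log-two fold change in thermal stability relative to solvent controls.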

Tubastatin A = compound: CN1CCc2c(c3ccccc3n2Cc2ccc(C(=O)NO)cc2)C1 [Tubastatin A]
How it was run: as §1

[1] = compound: CNC(=O)C1=CC=CC=C1NC2=NC(=NC=C2Cl)NC3=C(C=C(C=C3)N4CCOCC4)OC
How it was run: as §1

defactinib = compound: CNC(=O)c1ccc(Nc2ncc(C(F)(F)F)c(NCc3nccnc3N(C)S(C)(=O)=O)n2)cc1 [defactinib]
How it was run: as §1

[2] = compound: CNc1nc(-c2ccc3c(N)n[nH]c3c2)cc(N2C[C@@H](C(=O)NC3CCCCC3)CC[C@H]2C)n1
How it was run: as §1

encorafenib = compound: COC(=O)N[C@@H](C)CNc1nccc(-c2cn(C(C)C)nc2-c2cc(Cl)cc(NS(C)(=O)=O)c2F)n1 [encorafenib]
How it was run: as §1

[3] = compound: COC(=O)[C@H](CCSC)NC(=O)C1=C(C=C(C=C1)NC[C@H](CS)N)C2=CC=CC=C2
How it was run: as §1

alisertib = compound: COc1cc(Nc2ncc3c(n2)-c2ccc(Cl)cc2C(c2c(F)cccc2OC)=NC3)ccc1C(=O)O [alisertib]
How it was run: as §1

[4] = compound: COc1cc2nc(-c3cc(F)ccc3O)nc(N[C@@H]3CNC[C@H]3C(C)(C)O)c2cc1OC
How it was run: as §1

gefitinib = compound: COc1cc2ncnc(Nc3ccc(F)c(Cl)c3)c2cc1OCCCN1CCOCC1 [gefitinib]
How it was run: as §1

lapatinib = compound: CS(=O)(=O)CCNCc1ccc(-c2ccc3ncnc(Nc4ccc(OCc5cccc(F)c5)c(Cl)c4)c3c2)o1 [lapatinib]
How it was run: as §1

pictilisib = compound: CS(=O)(=O)N1CCN(Cc2cc3nc(-c4cccc5[nH]ncc45)nc(N4CCOCC4)c3s2)CC1 [pictilisib]
How it was run: as §1

crizotinib = compound: C[C@@H](Oc1cc(-c2cnn(C3CCNCC3)c2)cnc1N)c1c(Cl)ccc(F)c1Cl [crizotinib]
How it was run: as §1

[5] = compound: C[C@H](C1=CC=C(C=C1)C(=O)NC2=C3C=CNC3=NC=C2)N
How it was run: as §1

duvelisib = compound: C[C@H](Nc1ncnc2nc[nH]c12)c1cc2cccc(Cl)c2c(=O)n1-c1ccccc1 [duvelisib]
How it was run: as §1

gandotinib = compound: Cc1cc(Nc2cc(CN3CCOCC3)c3nc(C)c(Cc4ccc(Cl)cc4F)n3n2)n[nH]1 [gandotinib]
How it was run: as §1

tozasertib = compound: Cc1cc(Nc2cc(N3CCN(C)CC3)nc(Sc3ccc(NC(=O)C4CC4)cc3)n2)n[nH]1 [tozasertib]
How it was run: as §1

doramapimod = compound: Cc1ccc(-n2nc(C(C)(C)C)cc2NC(=O)Nc2ccc(OCCN3CCOCC3)c3ccccc23)cc1 [doramapimod]
How it was run: as §1

bafetinib = compound: Cc1ccc(NC(=O)c2ccc(CN3CC[C@H](N(C)C)C3)c(C(F)(F)F)c2)cc1Nc1nccc(-c2cncnc2)n1 [bafetinib]
How it was run: as §1

[6] = compound: Cc1cccc(CC(=O)N2CCc3c2ccc(-c2cn(C)c4ncnc(N)c24)c3F)n1
How it was run: as §1

Measured: log2 fold change

DECR1 (UniProt Q16698)
inactive: alvocidib -0.017 | Tubastatin A 0.092 | [1] -0.039 | defactinib 0.018 | [2] -0.005 | encorafenib -0.029 | [3] -0.025 | alisertib 0.014 | [4] 0.014 | gefitinib -0.006 | lapatinib -0.004 | pictilisib -0.045 | crizotinib 0.003 | [5] -0.008 | duvelisib 0.027 | gandotinib 0.07 | tozasertib -0.015 | doramapimod 0.011 | bafetinib 0.006 | [6] 0.013

DDI2 isoform 3 (UniProt Q5TDH0)
inactive: alvocidib -0.007 | Tubastatin A 0.034 | [1] -0.013 | defactinib 0.004 | [2] 0 | encorafenib 0.007 | [3] 0.016 | alisertib 0.006 | [4] 0.004 | gefitinib -0.023 | lapatinib 0.004 | pictilisib -0.002 | crizotinib 0.001 | [5] -0.013 | duvelisib 0.004 | gandotinib 0.007 | tozasertib -0.029 | doramapimod -0.001 | bafetinib 0.023 | [6] -0.042

DCAF8 (UniProt Q5TAQ9)
inactive: alvocidib -0.013 | Tubastatin A 0.037 | [1] -0.03 | defactinib -0.02 | [2] 0.027 | encorafenib -0.015 | [3] 0.058 | alisertib 0.067 | [4] -0.012 | gefitinib 0.064 | lapatinib 0.01 | pictilisib -0.014 | crizotinib -0.043 | [5] -0.032 | duvelisib 0.003 | gandotinib 0.058 | tozasertib 0.006 | doramapimod 0.032 | bafetinib 0.001 | [6] 0.054

DDAH2 (UniProt O95865)
inactive: alvocidib 0.066 | Tubastatin A 0 | [1] 0.028 | defactinib 0.027 | [2] -0.011 | encorafenib -0.02 | [3] -0.005 | alisertib -0.008 | [4] -0.036 | gefitinib 0.009 | lapatinib 0.049 | pictilisib -0.028 | crizotinib 0.025 | [5] 0.101 | duvelisib -0.028 | gandotinib -0.097 | tozasertib 0.026 | doramapimod 0.053 | bafetinib -0.003 | [6] -0.091

DENND4B (UniProt O75064)
inactive: alvocidib -0.072 | Tubastatin A 0.106 | [1] -0.006 | defactinib -0.017 | [2] -0.012 | encorafenib 0.021 | [3] 0.002 | alisertib -0.059 | [4] 0.008 | gefitinib 0.023 | lapatinib -0.042 | pictilisib -0.013 | crizotinib -0.142 | [5] -0.089 | duvelisib 0.004 | gandotinib 0.084 | tozasertib -0.025 | doramapimod 0.013 | bafetinib -0.023 | [6] 0.115

DDX49 (UniProt Q9Y6V7)
inactive: alvocidib -0.026 | Tubastatin A -0.007 | [1] 0.028 | defactinib 0.022 | [2] -0.09 | encorafenib 0.004 | [3] 0.006 | alisertib 0.009 | [4] -0.012 | gefitinib -0.078 | lapatinib -0.01 | pictilisib -0.069 | crizotinib 0.027 | [5] -0.001 | duvelisib 0.158 | gandotinib -0.04 | tozasertib 0.008 | doramapimod -0.023 | bafetinib -0.027 | [6] 0.039

DCAF16 (UniProt Q9NXF7)
inactive: alvocidib 0.098 | Tubastatin A 0.135 | [1] 0.038 | defactinib 0.052 | [2] 0.051 | encorafenib -0.022 | [3] 0.137 | alisertib 0.013 | [4] 0.034 | gefitinib -0.103 | lapatinib -0.012 | pictilisib 0.048 | crizotinib -0.072 | [5] 0.128 | duvelisib 0.031 | gandotinib -0.092 | tozasertib -0.139 | doramapimod -0.035 | bafetinib -0.017 | [6] -0.057

DDX41 (UniProt Q9UJV9)
inactive: alvocidib -0.016 | Tubastatin A -0.136 | [1] 0.014 | defactinib -0.015 | [2] 0.057 | encorafenib -0.013 | [3] 0.046 | alisertib -0.003 | [4] -0.002 | gefitinib 0.001 | lapatinib 0.019 | pictilisib 0.015 | crizotinib -0.051 | [5] -0.03 | duvelisib -0.02 | gandotinib 0.009 | tozasertib -0.049 | doramapimod 0.042 | bafetinib 0.002 | [6] 0.059

DCAF13 (UniProt Q9NV06)
inactive: alvocidib -0.029 | Tubastatin A 0.049 | [1] 0.037 | defactinib 0.068 | [2] 0.01 | encorafenib 0.058 | [3] 0.064 | alisertib 0.025 | [4] -0.022 | gefitinib 0.012 | lapatinib -0.047 | pictilisib -0.042 | crizotinib 0.025 | [5] 0.033 | duvelisib 0.015 | gandotinib 0.012 | tozasertib 0.029 | doramapimod 0.011 | bafetinib -0.052 | [6] -0.04

DDX1 (UniProt Q92499)
inactive: alvocidib 0.001 | Tubastatin A -0.044 | [1] 0.02 | defactinib -0.02 | [2] 0.006 | encorafenib -0.018 | [3] 0.063 | alisertib 0.012 | [4] -0.006 | gefitinib -0.013 | lapatinib 0.007 | pictilisib -0.006 | crizotinib -0.039 | [5] -0.013 | duvelisib -0.011 | gandotinib -0.004 | tozasertib -0.001 | doramapimod 0.013 | bafetinib -0.018 | [6] -0.018

DDX56 (UniProt Q9NY93)
inactive: alvocidib 0.075 | Tubastatin A -0.058 | [1] 0.043 | defactinib 0.051 | [2] 0.061 | encorafenib 0.048 | [3] 0.019 | alisertib 0.01 | [4] 0.004 | gefitinib -0.025 | lapatinib -0.035 | pictilisib 0.006 | crizotinib -0.024 | [5] -0.094 | duvelisib -0.006 | gandotinib -0.124 | tozasertib -0.061 | doramapimod 0.024 | bafetinib -0.037 | [6] 0.021

Two successive records already listed, quoted:
DCAF13 (UniProt Q9NV06)
inactive: alvocidib -0.029 | Tubastatin A 0.049 | [1] 0.037 | defactinib 0.068 | [2] 0.01 | encorafenib 0.058 | [3] 0.064 | alisertib 0.025 | [4] -0.022 | gefitinib 0.012 | lapatinib -0.047 | pictilisib -0.042 | crizotinib 0.025 | [5] 0.033 | duvelisib 0.015 | gandotinib 0.012 | tozasertib 0.029 | doramapimod 0.011 | bafetinib -0.052 | [6] -0.04

DDX1 (UniProt Q92499)
inactive: alvocidib 0.001 | Tubastatin A -0.044 | [1] 0.02 | defactinib -0.02 | [2] 0.006 | encorafenib -0.018 | [3] 0.063 | alisertib 0.012 | [4] -0.006 | gefitinib -0.013 | lapatinib 0.007 | pictilisib -0.006 | crizotinib -0.039 | [5] -0.013 | duvelisib -0.011 | gandotinib -0.004 | tozasertib -0.001 | doramapimod 0.013 | bafetinib -0.018 | [6] -0.018

The list continues.

DARS2 (UniProt Q6PI48)
inactive: alvocidib 0.04 | Tubastatin A -0.086 | [1] 0.004 | defactinib 0.037 | [2] -0.018 | encorafenib 0.041 | [3] 0.051 | alisertib 0.011 | [4] -0.004 | gefitinib -0.021 | lapatinib -0.001 | pictilisib 0.028 | crizotinib -0.038 | [5] -0.021 | duvelisib 0.009 | gandotinib -0.036 | tozasertib 0.074 | doramapimod 0.031 | bafetinib -0.044 | [6] 0.014

DCAF7 (UniProt P61962)
inactive: alvocidib 0.015 | Tubastatin A -0.054 | [1] 0.037 | defactinib -0.011 | [2] 0.009 | encorafenib 0.015 | [3] 0.029 | alisertib 0.017 | [4] 0.01 | gefitinib -0.032 | lapatinib -0.035 | pictilisib -0.027 | crizotinib 0.008 | [5] 0.055 | duvelisib -0.017 | gandotinib -0.025 | tozasertib -0.022 | doramapimod -0.018 | bafetinib 0.014 | [6] -0.026

DCXR (UniProt Q7Z4W1)
inactive: alvocidib -0.047 | Tubastatin A 0.003 | [1] -0.011 | defactinib -0.009 | [2] 0.017 | encorafenib -0.019 | [3] 0.002 | alisertib 0.026 | [4] -0.022 | gefitinib -0.005 | lapatinib -0.014 | pictilisib -0.031 | crizotinib 0.009 | [5] -0.046 | duvelisib -0.004 | gandotinib 0.007 | tozasertib -0.015 | doramapimod 0.037 | bafetinib -0.059 | [6] 0.011

DDA1 (UniProt Q9BW61)
inactive: alvocidib 0.024 | Tubastatin A -0.002 | [1] 0.015 | defactinib -0.004 | [2] 0.031 | encorafenib 0.013 | [3] 0.021 | alisertib -0.024 | [4] -0.003 | gefitinib -0.034 | lapatinib 0.011 | pictilisib -0.025 | crizotinib 0.025 | [5] -0.013 | duvelisib -0.013 | gandotinib -0.019 | tozasertib -0.037 | doramapimod 0.013 | bafetinib 0.011 | [6] -0.062

DENND4C (UniProt Q5VZ89)
inactive: alvocidib -0.021 | Tubastatin A -0.037 | [1] 0 | defactinib 0.028 | [2] 0.012 | encorafenib 0.064 | [3] 0.043 | alisertib 0.02 | [4] 0.016 | gefitinib 0.02 | lapatinib 0.066 | pictilisib 0.006 | crizotinib -0.043 | [5] -0.006 | duvelisib -0.001 | gandotinib 0.002 | tozasertib 0.004 | doramapimod 0.021 | bafetinib -0.041 | [6] 0.01
